This is an account of results in the supplement of paper PMC11060735.

Structures are written as SMILES. Where “and” joins values, the source holds several entries; their conditions need not be identical. Equal entries are not always repeated. Structures can show the parent of a compound that is named as a salt. ± gives the standard deviation of the averaged measurements. In all, about 1,800 compounds were measured (“GFP- (p16Ink4a-) cell count relative to negative-control wells”: median about 0.99, lowest 2% from about 0.5 on). Some of the results follow.

This test deals with mouse p16Ink4a+/- lung fibroblasts (INKBRITE, bleomycin-injured). The test is described as follows: GFP- (p16Ink4a-) cell count relative to negative-control wells (fold of vehicle); higher = more p16Ink4a- cells surviving. Conditions: 1 µM; 3 days.
As for `CCCN1CCCC[C@H]1C(=O)Nc1c(C)cccc1C` [Ropivacaine, Ropivacaine Hydrochloride], the GFP- came to 1.08.

As to `CCCCOc1ccc(C(=O)CCN2CCCCC2)cc1` [Dyclonine], the GFP- amounted to 0.894.

With `NC(=O)c1noc([C@H](CCCC2CCCCC2)CC(=O)NO)n1`, the GFP- stood at 0.703.

As for `C[C@H]1COc2c(N3CCN(C)CC3)c(F)cc3c(=O)c(C(=O)O)cn1c23` [Levofloxacin], the GFP- was found to be 0.911.

`CC(C)c1nc(CN(C)C(=O)N[C@@H](CCN2CCOCC2)C(=O)N[C@H](CC[C@H](Cc2ccccc2)NC(=O)OCc2cncs2)Cc2ccccc2)cs1` [Cobicistat] showed a GFP- of 1.04.

Compound `CCN(CC)C(=S)SSC(=S)N(CC)CC` [Disulfiram] displayed a GFP- of 0.453.

The compound `Cc1cccc(CN2CCN(C(c3ccccc3)c3ccc(Cl)cc3)CC2)c1` (centres undefined) [Meclizine] had a GFP- of 0.96.

`C[C@H](NC(=O)[C@@H](O)c1cc(F)cc(F)c1)C(=O)N[C@@H]1C(=O)N(C)c2ccccc2-c2ccccc21` returned a GFP- of 0.963.

In turn, `CN1CCN(c2cccc(Nc3nc4c(-c5ccc(S(C)(=O)=O)cc5)cccn4n3)c2)CC1` had a GFP- of 0.962 ± 0.017.

As to `NCCCCCNCC12CC3CC(CC(C3)C1)C2` [dihydrobroMide], the GFP- turned out to be 1.19.

Take `CCCCNc1cc(C(=O)O)cc(S(N)(=O)=O)c1Oc1ccccc1` [Bumetanide]: the GFP- is 1.15.

In turn, `O=C(NCc1ccc(Oc2ccccc2)cc1)c1nc(-c2cc(Br)c(O)c(Br)c2)no1` came in with a GFP- of 0.936.

For the compound `O[C@@H](CNC[C@H](O)[C@H]1CCc2cc(F)ccc2O1)[C@@H]1CCc2cc(F)ccc2O1` [Nebivolol], the GFP- worked out at 0.928.

On to `COC(=O)Nc1nc2cc(C(=O)c3ccc(F)cc3)ccc2[nH]1` [Flubendazole], for which the GFP- was 0.933.

On to `CN(C)CCC=C1c2ccccc2CCc2ccccc21` [Amitriptyline], for which the GFP- amounted to 0.751.

As to `CN(C)C(=O)C(CCN1CCC(O)(c2ccc(Cl)cc2)CC1)(c1ccccc1)c1ccccc1` [Loperamide], the GFP- was found to be 1.16.

Compound `Cc1cc(C)c(CNC(=O)c2cc(-c3ccc(CN4CCOCC4)cc3)cc3c2cnn3C2CCCC2)c(O)n1` returned a GFP- of 0.893 ± 0.04.

In the case of `CC1(C)S[C@@H]2[C@H](NC(=O)C(C(=O)O)c3ccccc3)C(=O)N2[C@H]1C(=O)O` (some centres undefined) [Carbenicillin], the GFP- was 1.19.

With `O=C(O)Cc1cccc(OCCCN(Cc2cccc(C(F)(F)F)c2Cl)CC(c2ccccc2)c2ccccc2)c1`, the GFP- was 0.916.

Compound `N=C(N)N` [Guanidine] yielded a GFP- of 1.03.

Regarding `COc1ccc([C@@H]2CC(=O)c3c(O)cc(O[C@@H]4O[C@H](CO[C@@H]5O[C@@H](C)[C@H](O)[C@@H](O)[C@H]5O)[C@@H](O)[C@H](O)[C@H]4O)cc3O2)cc1O` [Hesperidin], the GFP- was 1.11 and 0.972.

`CCN1/C(=C/C(C)=O)Sc2ccc(OC)cc21` displayed a GFP- of 0.912.

Consider `COc1cc(OC)c2c(O)nc(-c3cc(C)c(OCCO)c(C)c3)nc2c1`, for which the GFP- was 0.938 ± 0.072.

The compound `Fc1ccc(C(c2ccc(F)cc2)N2CCN(C/C=C/c3ccccc3)CC2)cc1` [Flunarizine] registered a GFP- of 1.07.

As to `CS(=O)(=O)c1ccc(C2=C(c3ccccc3)C(=O)OC2)cc1` [Rofecoxib], the GFP- was 1.16.

As to `Cc1cc(-c2ncc(CC(=O)Nc3ccc(-c4cnccn4)cn3)cc2C)ccn1`, the GFP- came to 1.18.

`CC1(C)CC(=O)c2c(C(F)(F)F)nn(-c3ccc(C(N)=O)c(N[C@H]4CC[C@H](OC(=O)CN)CC4)c3)c2C1` yielded a GFP- of 0.658.

Compound `Cc1ccc(O)c([C@H](CCN(C(C)C)C(C)C)c2ccccc2)c1` [Tolterodine] displayed a GFP- of 1.03.

`CC1(C)SC2C(NC(=O)[C@H](C(=O)O)c3ccsc3)C(=O)N2C1C(=O)O` (some centres undefined) [Ticarcillin sodium] showed a GFP- of 1.22.

As for `C=CCc1ccc(O)c(-c2ccc(O)c(CC=C)c2)c1` [Honokiol], the GFP- worked out at 0.883.

`C[C@]1(c2nc3c(C(N)=O)cccc3[nH]2)CCCN1` [Veliparib] registered a GFP- of 0.936 ± 0.085.

In the case of `O=C(/C=C/C=C/c1ccc2c(c1)OCO2)N1CCCCC1` [Piperine], the GFP- worked out at 1.04.

Take `Cc1ccc(NC(=O)c2cccc(C(C)(C)C#N)c2)cc1Nc1ccc2ncn(C)c(=O)c2c1`: the GFP- was 1.03.

Take `CC(C)(C)c1ccc(C(=O)CCCN2CCC(OC(c3ccccc3)c3ccccc3)CC2)cc1` [Ebastine]: the GFP- worked out at 0.749.

`COc1ccc(CCN(C)CCCC(C#N)(c2ccc(OC)c(OC)c2)C(C)C)cc1OC` (centres undefined) [Verapamil]: the GFP- stood at 0.931.

As to `C=C1C(=O)[C@@]23C(CC[C@@H]1[C@H]2O)[C@@]12CO[C@]3(O)[C@@H](O)[C@@H]1C(C)(C)CC[C@@H]2O` (some centres undefined) [Oridonin], the GFP- is 0.884.

The compound `N[C@@H](Cc1cc(I)c(Oc2ccc(O)c(I)c2)c(I)c1)C(=O)O` [Liothyronine] came in with a GFP- of 0.935.

`Cc1ccc(-n2sc(=O)n(Cc3ccc(F)cc3)c2=O)cc1`: the GFP- is 1.1.

Compound `O=c1cc(N2CCOCC2)oc2c1ccc1ccccc12` yielded a GFP- of 1.03.

As to `CCOc1ccccc1N=Nc1c(C)nn(-c2nc(-c3ccccc3)cs2)c1O`, the GFP- was found to be 0.929.

In the case of `CC(=O)Oc1ccc(C(c2ccc(OC(C)=O)cc2)c2ccccn2)cc1` [Bisacodyl], the GFP- was found to be 1.13.

Compound `CN(C)CC/C=C1/c2ccccc2COc2ccc(CC(=O)O)cc21` [Olopatadine] returned a GFP- of 1.

`CN(C)c1ccc(C(=O)NCCCCCCC(=O)NO)cc1` showed a GFP- of 0.614 ± 0.1.

In the case of `CO[C@H]1C[C@@H]2CC[C@@H](C)[C@@](O)(O2)C(=O)C(=O)N2CCCC[C@H]2C(=O)O[C@H]([C@H](C)C[C@@H]2CC[C@@H](OC(=O)C(C)(CO)CO)[C@H](OC)C2)CC(=O)[C@H](C)/C=C(\C)[C@@H](O)[C@@H](OC)C(=O)[C@H](C)C[C@H](C)/C=C/C=C/C=C/1C` [Temsirolimus], the GFP- came to 0.67.

In turn, `COC(=O)N[C@@H](C)CNc1nccc(-c2cn(C(C)C)nc2-c2cc(Cl)cc(NS(C)(=O)=O)c2F)n1` came in with a GFP- of 1.03.

In the case of `C[C@H](CCC(=O)O)[C@H]1CC[C@H]2[C@@H]3[C@@H](O)C[C@@H]4C[C@H](O)CC[C@]4(C)[C@H]3CC[C@]12C` [Ursodeoxycholic Acid], the GFP- was 0.953.

In the case of `O=C(O)c1ccc(N2C(=O)/C(=C/c3ccc(-c4ccc([N+](=O)[O-])cc4)o3)C=C2c2ccccc2)cc1`, the GFP- was found to be 0.896.

The compound `O=[N+]([O-])c1ccc2c(c1)S(=O)(=O)C=C2` [Stattic] gave a GFP- of 0.935.

With `N=C(N)/N=C(\N)NCCc1ccccc1` [Phenformin], the GFP- is 1.14.

The compound `COC(=O)/C=C/C(=O)OC` [Dimethyl Fumarate] yielded a GFP- of 1.

Compound `CC#CCn1c(N2CCC[C@@H](N)C2)nc2c1c(=O)n(Cc1nc(C)c3ccccc3n1)c(=O)n2C` [Linagliptin] displayed a GFP- of 1.16.

`N[C@H]1C[C@@H]1c1ccc(-c2cccc(O)c2)cc1` registered a GFP- of 1.01 ± 0.044.

`Nc1ncnc2c1ncn2[C@@H]1O[C@H](CO)[C@@H](O)[C@H]1O` [Adenosine] registered a GFP- of 1.01.

On to `CS(=O)(=O)c1ccc([C@@H](O)[C@@H](CF)NC(=O)C(Cl)Cl)cc1` [Florfenicol], for which the GFP- turned out to be 0.943.

`c1ccc2c(CC3=NCCN3)cccc2c1` [Naphazoline] had a GFP- of 1.1.

`CN[C@@H]1[C@H](O)[C@H](NC)[C@H]2O[C@@]3(O)C(=O)C[C@@H](C)O[C@H]3O[C@@H]2[C@H]1O` [Spectinomycin] displayed a GFP- of 1.11.

As for `CN1CCOC(c2ccccc2)c2ccccc2C1` (centres undefined) [Nefopam], the GFP- came to 1.1.

With `COC(=O)Nc1nc2cc(S(=O)c3ccccc3)ccc2[nH]1` (centres undefined) [Oxfendazole], the GFP- turned out to be 1.02.

`OCc1c[nH]c2ccccc12` [Indole-3-carbinol] came in with a GFP- of 0.967.

For the compound `CCC(C)(C)C(=O)O[C@H]1C[C@@H](C)C=C2C=C[C@H](C)[C@H](CC[C@@H]3C[C@@H](O)CC(=O)O3)[C@H]21` [Simvastatin], the GFP- amounted to 0.565.

On to `O=C(O)c1cccnc1` [Niacin], for which the GFP- was found to be 1.06.

The compound `Cc1ccc(F)c(NC(=O)Nc2ccc(-c3cccc4[nH]nc(N)c34)cc2)c1` [Linifanib] yielded a GFP- of 0.965.

In turn, `Cc1nc(O)c2cc(CN(C)c3ccc(C(=O)N[C@@H](CCC(=O)O)C(=O)O)s3)ccc2n1` [Raltitrexed] gave a GFP- of 1.01.

In turn, `CN(C)CCC(c1ccc(Cl)cc1)c1ccccn1` (centres undefined) [Chlorphenamine] gave a GFP- of 1.04.

Compound `CC(=O)NS(=O)(=O)c1ccc(N)cc1` [Sulfacetamide] showed a GFP- of 0.929.

As to `CC[C@H]1OC(=O)C[C@@H](O)[C@H](C)[C@@H](O[C@@H]2O[C@H](C)[C@@H](O)[C@H](N(C)C)[C@H]2O)[C@@H](CCN2C[C@H](C)C[C@H](C)C2)C[C@@H](C)C(=O)/C=C/C(C)=C/[C@@H]1CO[C@@H]1O[C@H](C)[C@@H](O)[C@@H](OC)[C@H]1OC` [Tilmicosin], the GFP- came to 0.931.

Compound `COC(=O)Nc1nc2cc(C(=O)c3cccs3)ccc2[nH]1` [Nocodazole] had a GFP- of 0.555.

The compound `CC1=C(C(=O)OC2CCCCC2)C(c2ccc([N+](=O)[O-])cc2)C2=C(O)CC(C)(C)CC2=N1` (centres undefined) returned a GFP- of 0.82.

Consider `CC1CC(OC(=O)C(O)c2ccccc2)CC(C)(C)C1` (centres undefined) [Cyclandelate], for which the GFP- is 1.2.

The compound `CCN(CC)CC(=O)Nc1c(C)cccc1C` [Lidocaine] came in with a GFP- of 1.01.

The compound `CC(CNC(=O)c1cccnc1)NC(=O)c1cccnc1` (centres undefined) [Nicaraven] yielded a GFP- of 1.16.

`CC(C)NCC(O)c1ccc(NS(C)(=O)=O)cc1` (centres undefined) [Sotalol] had a GFP- of 1.13.

Compound `c1ccc(CC2=NCCN2)cc1` [Tolazoline, Priscoline] gave a GFP- of 1.04.

As to `O=C(O)c1cccnc1Nc1cccc(C(F)(F)F)c1` [Niflumic Acid], the GFP- is 1.04.

`CC1(C)S[C@@H]2[C@H](NC(=O)[C@H](N)c3ccccc3)C(=O)N2[C@H]1C(=O)O` [Ampicillin]: the GFP- is 1.02 and 1.05.

Regarding `O=C(NCc1cccc(O)c1)Nc1nc(-c2ccncc2)cs1`, the GFP- amounted to 1.17.

`CC(=O)N1CCN(CCOc2ccc(C3CCN(C4=Nn5c(nnc5C(F)(F)F)CC4)CC3)cc2)CC1` returned a GFP- of 1.03.

`CCCOc1ccc(C(=O)OCCN(CC)CC)cc1N` [Proparacaine] yielded a GFP- of 1.12.

Take `C[N+](C)(C)CC(O)CC(=O)O` (stereo not drawn) [Carnitine Hydrochloride, Carnitine (dl) Hydrochloride]: the GFP- came out at 1.1.
